The values below come from publication PMC8184781, “A histone H3K4me1-specific binding protein is required for siRNA accumulation and DNA methylation at a subset of loci targeted by RNA-directed DNA methylation” (Nature Communications, 2021).

Results are given in words; binding and its absence hold for the method and conditions named. Binding seen in cells or lysates may run through a third protein. A yes stands for co-enrichment or nearness to the bait. Other partners may have been found. Where a sequence is shown, tags or fusion partners need not be part of it.

Test [1] has as its target T1, RDM15-3xMYC (Arabidopsis thaliana) (UniProt Q8GUP3).
T1 sequence: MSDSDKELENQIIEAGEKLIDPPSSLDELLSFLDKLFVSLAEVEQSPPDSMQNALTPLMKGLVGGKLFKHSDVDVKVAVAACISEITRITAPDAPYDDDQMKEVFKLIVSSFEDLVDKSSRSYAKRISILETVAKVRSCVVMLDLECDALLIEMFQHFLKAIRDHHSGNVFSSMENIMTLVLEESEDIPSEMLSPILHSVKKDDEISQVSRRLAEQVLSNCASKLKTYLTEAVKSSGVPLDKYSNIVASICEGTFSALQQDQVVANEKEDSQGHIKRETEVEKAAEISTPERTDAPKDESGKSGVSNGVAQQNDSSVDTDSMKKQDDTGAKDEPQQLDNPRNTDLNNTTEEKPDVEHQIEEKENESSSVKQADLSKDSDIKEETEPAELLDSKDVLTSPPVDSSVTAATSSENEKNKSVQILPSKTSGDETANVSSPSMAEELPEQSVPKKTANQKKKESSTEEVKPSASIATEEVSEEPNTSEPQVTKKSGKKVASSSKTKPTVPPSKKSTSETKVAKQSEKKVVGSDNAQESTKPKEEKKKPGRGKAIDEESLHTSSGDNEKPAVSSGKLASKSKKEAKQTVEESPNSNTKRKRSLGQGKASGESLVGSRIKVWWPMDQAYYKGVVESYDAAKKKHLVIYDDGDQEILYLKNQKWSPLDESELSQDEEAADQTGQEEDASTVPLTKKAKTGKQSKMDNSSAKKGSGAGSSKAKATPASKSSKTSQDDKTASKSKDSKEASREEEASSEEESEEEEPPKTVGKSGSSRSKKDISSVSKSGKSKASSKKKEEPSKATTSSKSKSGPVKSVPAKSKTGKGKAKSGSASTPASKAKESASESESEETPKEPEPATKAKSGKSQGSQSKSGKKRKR
As to the kind of experiment: affinity purification with mass spectrometry; anti-Flag M2 or anti-Myc immunoprecipitation from flower tissue of RDM15-3xFLAG/rdm15-3 or RDM15-3xMYC/rdm15-3 plants; LC-MS/MS; WT plants as control.

Test [2] has as its target T2, RDM15-3xFLAG (Arabidopsis thaliana) (UniProt Q8GUP3).
T2 sequence: T1 sequence
The description is as above.

B1: NRPE3B, a subunit exclusive to Pol V (protein, UniProt Q39212 1-319)
chain: MDGVTYQRFPTVKIRELKDDYAKFELRETDVSMANALRRVMISEVPTMAIHLVKIEVNSSVLNDEFIAQRLSLIPLTSERAMSMRFCQDCEDCNGDEHCEFCSVEFPLSAKCVTDQTLDVTSRDLYSADPTVTPVDFTSNSSTSDSSEHKGIIIAKLRRGQELKLKALARKGIGKDHAKWSPAATVTYMYEPDIIINEEMMNTLTDEEKIDLIESSPTKVFGIDPVTGQVVVVDPEAYTYDEEVIKKAEAMGKPGLIEIHPKHDSFVFTVESTGALKASQLVLNAIDILKQKLDAIRLSDNTVEADDQFGELGAHMREG
With B1, the binding result in test [1] and in test [2] was “binds” in each case.
